Experimental data: the supplement of paper PMC10849652
Some of the results follow.

Sequences of proteins named here, by UniProt entry; tags and fusion partners are left off. A change or cut given only in a name is not applied to a line headed by its entry.
UniProt Q92785, whole entry, looked up: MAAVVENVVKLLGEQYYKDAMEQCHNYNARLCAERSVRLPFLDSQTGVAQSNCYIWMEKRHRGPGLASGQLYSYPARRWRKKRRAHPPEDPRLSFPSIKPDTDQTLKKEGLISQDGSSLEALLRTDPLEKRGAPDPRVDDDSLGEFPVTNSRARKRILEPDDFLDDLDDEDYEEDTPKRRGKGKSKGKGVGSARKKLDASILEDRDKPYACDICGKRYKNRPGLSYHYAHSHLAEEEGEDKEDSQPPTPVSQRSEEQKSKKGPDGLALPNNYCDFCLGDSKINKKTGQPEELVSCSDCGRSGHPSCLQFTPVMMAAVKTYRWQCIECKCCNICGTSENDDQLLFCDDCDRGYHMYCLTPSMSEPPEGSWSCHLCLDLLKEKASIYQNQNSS
UniProt P63167, whole entry, looked up: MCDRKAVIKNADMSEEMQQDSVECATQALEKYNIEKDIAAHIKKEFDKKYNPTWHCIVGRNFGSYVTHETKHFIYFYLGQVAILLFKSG
UniProt O14641: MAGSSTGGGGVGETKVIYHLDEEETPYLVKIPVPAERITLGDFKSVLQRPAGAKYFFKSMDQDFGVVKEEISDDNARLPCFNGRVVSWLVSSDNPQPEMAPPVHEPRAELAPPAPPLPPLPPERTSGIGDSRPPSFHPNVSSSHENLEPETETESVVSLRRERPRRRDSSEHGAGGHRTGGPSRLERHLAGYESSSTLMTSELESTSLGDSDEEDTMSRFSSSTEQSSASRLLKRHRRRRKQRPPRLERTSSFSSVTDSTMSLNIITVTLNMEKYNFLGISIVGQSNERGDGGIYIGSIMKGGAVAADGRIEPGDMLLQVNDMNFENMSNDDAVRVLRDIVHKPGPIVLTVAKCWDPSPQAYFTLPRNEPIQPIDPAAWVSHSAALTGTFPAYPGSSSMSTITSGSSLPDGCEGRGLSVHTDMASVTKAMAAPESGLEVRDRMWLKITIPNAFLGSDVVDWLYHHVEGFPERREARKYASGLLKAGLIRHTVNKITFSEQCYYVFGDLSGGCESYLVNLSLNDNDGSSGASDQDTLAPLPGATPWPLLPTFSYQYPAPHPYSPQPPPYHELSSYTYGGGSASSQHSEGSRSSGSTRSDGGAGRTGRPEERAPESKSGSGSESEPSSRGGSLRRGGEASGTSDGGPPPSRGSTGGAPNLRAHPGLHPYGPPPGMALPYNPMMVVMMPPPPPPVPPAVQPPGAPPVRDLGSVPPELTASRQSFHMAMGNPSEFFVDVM
UniProt O60762: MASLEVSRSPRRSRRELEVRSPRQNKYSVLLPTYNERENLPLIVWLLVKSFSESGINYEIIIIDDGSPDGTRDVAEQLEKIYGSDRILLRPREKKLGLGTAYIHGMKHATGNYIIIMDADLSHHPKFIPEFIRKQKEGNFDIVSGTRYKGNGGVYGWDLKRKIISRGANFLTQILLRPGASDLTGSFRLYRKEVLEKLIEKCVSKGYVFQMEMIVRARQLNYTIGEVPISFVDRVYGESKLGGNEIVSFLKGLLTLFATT
UniProt Q6P1R4: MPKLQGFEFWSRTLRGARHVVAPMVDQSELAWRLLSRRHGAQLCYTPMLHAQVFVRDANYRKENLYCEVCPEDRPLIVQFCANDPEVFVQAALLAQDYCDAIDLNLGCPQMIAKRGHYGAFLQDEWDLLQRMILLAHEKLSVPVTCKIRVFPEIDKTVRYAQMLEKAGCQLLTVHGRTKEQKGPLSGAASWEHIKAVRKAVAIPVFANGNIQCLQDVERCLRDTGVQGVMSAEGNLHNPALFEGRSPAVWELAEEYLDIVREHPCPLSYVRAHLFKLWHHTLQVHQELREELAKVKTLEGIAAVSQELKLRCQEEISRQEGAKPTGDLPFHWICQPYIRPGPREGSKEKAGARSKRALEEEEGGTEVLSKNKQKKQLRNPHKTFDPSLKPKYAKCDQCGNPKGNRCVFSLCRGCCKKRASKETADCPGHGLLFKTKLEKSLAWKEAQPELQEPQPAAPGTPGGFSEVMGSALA
UniProt O00418: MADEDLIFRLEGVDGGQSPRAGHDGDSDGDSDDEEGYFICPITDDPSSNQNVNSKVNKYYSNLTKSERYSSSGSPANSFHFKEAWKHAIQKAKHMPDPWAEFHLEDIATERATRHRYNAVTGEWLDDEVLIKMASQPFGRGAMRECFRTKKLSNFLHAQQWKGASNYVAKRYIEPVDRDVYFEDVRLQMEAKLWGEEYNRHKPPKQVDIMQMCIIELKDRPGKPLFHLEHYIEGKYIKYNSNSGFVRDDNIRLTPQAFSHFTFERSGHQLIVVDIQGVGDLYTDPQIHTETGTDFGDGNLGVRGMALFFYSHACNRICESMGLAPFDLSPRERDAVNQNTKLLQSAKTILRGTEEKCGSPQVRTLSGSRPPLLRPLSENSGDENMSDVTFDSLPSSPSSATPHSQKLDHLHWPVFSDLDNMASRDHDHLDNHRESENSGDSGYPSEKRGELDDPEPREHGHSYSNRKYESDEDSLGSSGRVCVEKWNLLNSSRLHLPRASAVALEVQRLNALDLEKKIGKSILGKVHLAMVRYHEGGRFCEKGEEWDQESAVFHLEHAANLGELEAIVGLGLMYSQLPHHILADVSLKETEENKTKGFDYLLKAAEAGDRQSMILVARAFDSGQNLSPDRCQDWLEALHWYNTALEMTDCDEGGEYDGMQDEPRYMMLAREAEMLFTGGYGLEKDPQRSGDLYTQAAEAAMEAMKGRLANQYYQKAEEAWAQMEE
UniProt Q8N5C7: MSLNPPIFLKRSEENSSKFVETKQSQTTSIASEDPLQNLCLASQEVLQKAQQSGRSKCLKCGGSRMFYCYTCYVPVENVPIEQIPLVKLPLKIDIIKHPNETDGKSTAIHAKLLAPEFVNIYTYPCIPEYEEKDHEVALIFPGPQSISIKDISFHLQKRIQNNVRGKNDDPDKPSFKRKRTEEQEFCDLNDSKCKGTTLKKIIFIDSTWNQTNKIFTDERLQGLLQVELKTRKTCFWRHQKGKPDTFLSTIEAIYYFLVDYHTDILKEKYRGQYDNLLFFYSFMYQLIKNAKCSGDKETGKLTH
UniProt P26641, whole entry, looked up: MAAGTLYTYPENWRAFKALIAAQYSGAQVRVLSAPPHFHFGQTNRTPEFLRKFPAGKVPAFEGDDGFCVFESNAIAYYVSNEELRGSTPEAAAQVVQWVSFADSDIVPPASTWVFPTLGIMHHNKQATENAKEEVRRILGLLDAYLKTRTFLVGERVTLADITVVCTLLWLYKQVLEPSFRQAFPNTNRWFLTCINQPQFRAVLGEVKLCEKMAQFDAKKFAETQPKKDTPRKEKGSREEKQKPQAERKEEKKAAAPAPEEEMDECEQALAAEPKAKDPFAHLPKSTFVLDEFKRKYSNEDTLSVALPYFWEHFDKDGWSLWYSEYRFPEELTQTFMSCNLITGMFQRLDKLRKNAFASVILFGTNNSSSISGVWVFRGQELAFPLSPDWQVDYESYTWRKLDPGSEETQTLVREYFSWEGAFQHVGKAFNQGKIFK
UniProt P41567, whole entry, looked up: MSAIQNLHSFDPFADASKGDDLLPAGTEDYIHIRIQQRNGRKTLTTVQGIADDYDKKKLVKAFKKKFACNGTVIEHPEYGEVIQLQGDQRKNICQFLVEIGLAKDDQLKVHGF
UniProt O43237, whole entry, looked up: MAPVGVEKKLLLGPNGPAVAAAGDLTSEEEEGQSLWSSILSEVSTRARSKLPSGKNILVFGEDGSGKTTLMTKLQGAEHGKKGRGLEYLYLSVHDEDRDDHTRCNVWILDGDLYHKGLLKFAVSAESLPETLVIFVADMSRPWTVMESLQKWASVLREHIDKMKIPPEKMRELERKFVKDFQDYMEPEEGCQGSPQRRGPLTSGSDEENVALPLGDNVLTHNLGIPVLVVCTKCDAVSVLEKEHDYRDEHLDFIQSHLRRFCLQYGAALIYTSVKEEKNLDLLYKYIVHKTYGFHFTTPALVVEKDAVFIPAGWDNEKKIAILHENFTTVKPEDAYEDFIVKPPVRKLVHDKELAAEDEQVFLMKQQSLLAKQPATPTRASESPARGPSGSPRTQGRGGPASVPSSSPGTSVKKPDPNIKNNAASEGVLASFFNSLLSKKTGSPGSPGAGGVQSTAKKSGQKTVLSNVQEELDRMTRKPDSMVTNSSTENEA
UniProt Q9GZT9: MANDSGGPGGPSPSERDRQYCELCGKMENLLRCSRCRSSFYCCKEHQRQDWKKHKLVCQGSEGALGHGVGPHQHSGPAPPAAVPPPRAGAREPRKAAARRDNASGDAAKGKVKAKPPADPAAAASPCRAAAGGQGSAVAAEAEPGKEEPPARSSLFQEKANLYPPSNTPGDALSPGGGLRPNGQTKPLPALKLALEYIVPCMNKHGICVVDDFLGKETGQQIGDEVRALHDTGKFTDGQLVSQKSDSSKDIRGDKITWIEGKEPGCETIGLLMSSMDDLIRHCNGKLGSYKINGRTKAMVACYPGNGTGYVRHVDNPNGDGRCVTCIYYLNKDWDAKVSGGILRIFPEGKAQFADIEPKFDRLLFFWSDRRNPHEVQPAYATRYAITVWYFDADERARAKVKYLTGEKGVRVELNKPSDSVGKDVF
UniProt Q9NX74: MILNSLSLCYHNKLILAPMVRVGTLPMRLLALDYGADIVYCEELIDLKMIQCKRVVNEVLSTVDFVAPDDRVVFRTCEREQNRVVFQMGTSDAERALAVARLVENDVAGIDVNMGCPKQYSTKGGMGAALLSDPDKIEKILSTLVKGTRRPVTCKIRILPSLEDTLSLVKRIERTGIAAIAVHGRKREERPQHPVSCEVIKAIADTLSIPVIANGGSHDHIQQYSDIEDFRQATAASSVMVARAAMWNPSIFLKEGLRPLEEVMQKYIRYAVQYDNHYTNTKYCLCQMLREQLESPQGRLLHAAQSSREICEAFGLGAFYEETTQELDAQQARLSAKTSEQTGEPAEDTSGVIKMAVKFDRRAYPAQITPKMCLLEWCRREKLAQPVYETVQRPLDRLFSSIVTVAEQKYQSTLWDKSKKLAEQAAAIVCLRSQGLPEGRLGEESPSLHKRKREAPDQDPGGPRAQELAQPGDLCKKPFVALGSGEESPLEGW
UniProt Q14126: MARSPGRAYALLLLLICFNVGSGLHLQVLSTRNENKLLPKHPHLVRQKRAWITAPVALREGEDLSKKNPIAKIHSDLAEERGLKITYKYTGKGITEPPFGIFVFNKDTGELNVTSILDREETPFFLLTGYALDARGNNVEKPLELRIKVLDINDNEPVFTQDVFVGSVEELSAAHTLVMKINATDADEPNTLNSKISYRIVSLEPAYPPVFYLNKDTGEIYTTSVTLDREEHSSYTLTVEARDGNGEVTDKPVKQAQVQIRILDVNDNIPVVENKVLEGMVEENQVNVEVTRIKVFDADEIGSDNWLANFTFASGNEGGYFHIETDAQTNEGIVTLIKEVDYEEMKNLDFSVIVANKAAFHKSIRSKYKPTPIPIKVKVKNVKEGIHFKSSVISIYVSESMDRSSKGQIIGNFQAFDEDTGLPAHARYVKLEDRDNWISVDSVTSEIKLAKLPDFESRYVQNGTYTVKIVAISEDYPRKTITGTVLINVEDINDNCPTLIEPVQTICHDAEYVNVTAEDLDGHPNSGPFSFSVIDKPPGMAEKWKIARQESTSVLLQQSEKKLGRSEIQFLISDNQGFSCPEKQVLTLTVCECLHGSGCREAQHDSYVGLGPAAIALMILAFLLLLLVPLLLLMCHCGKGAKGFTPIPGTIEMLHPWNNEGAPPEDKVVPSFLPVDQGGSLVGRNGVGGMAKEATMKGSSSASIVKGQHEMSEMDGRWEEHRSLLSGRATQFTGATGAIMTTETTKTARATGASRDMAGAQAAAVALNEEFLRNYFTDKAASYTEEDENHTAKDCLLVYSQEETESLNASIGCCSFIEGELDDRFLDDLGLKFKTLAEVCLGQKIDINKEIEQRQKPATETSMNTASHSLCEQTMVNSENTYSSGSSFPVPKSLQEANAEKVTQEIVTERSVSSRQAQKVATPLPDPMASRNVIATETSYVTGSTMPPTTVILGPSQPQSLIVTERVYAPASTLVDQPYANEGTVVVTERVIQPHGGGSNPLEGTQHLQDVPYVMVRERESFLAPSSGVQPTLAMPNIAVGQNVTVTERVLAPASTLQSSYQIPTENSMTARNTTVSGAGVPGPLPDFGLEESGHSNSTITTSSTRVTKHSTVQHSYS

Key:
Experiment in all cases: log2 fold change, soluble protein after heating vs DMSO (PISA); higher = thermal stabilisation; K562 lysate, 10 uM; active = over 0.2 and 3.5 SD of the protein, either way, in both replicates (recomputed)
[1] = compound: C#Cc1cccc(Nc2ncnc3cc(OCCOC)c(OCCOC)cc23)c1 [erlotinib]
How it was run: (§1)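 K562 pellets were dounce-homogenised in PBS pH 7.4 containing 1 mM MgCl2, and the crude extract, at 1 mg/mL protein, was exposed to 10 μM compound for 30 min. Aliquots were heated for 3 min across 48°C-58°C, pooled, brought to 0.5% NP-40 at 4°C and spun at 21,000xg for 90 min, with the supernatant taken as soluble protein. TMTpro 16plex LC-MS/MS with equalised channel sums quantified that protein. Values are log-two fold changes in thermal stability relative to solvent controls, taken from duplicates.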

[2] = compound: C/C(=N\NC(=O)C1=CC(=CC=C1)S(=O)(=O)N2CCOCC2)/C3=C(C=CC(=C3)Cl)O
How it was run: as §1

[3] = compound: C1=CC(=CC=C1C2=NC3=C(N2)C=C(C=C3)C(=O)N)OC4=CC=C(C=C4)Cl
How it was run: as §1

[4] = compound: C1=CC2=C(C=CC(=C2)/C=C\3/C(=O)NC(=NCC4=CC=CS4)S3)N=C1
How it was run: as §1

[5] = compound: C1=CC2=NC=CN=C2C=C1/C=C/3\C(=O)NC(=O)S3
How it was run: as §1

[6] = compound: C1=CC=C(C=C1)C2=NC(=C(N2)C3=CC=NC=C3)C4=CC(=C(C=C4)Cl)O
How it was run: as §1

[7] = compound: C1=CC=C2C(=C1)C3=NNC4=CC=CC(=C43)C2=O
How it was run: as §1

[8] = compound: C1CCN(C1)C(=O)NC2=CC=CC(=C2)NC3=NC=C(C(=N3)NCCC4=CN=CN4)Br
How it was run: as §1

[9] = compound: C1CN(CCC1(CC2=CC=C(C=C2)Cl)N)C3=NC=NC4=C3C=CN4
How it was run: as §1

[10] = compound: C1COCCN1CCN2C3=CC=CC=C3N=C2NC(=O)C4=CC(=CC=C4)[N+](=O)[O-] [IRAK-1-4 Inhibitor I]
How it was run: as §1

[11] = compound: C=CC(=O)N1CCC[C@@H](n2nc(-c3ccc(Oc4ccccc4)cc3)c3c(N)ncnc32)C1 [ibrutinib]
How it was run: as §1

[12] = compound: CC(=O)c1cnc2ccc(-c3cc(Cl)c(O)c(Cl)c3)nc2c1N[C@H]1CC[C@H](CN(C)C)CC1
How it was run: as §1

[13] = compound: CC(C)(C)Cn1c(N)nc2ccc(-c3[nH]c(C(C)(C)C)nc3-c3ccc(F)cc3)nc21 [ralimetinib]
How it was run: as §1

[14] = compound: CC(C)(O)CC(=O)NCCn1ccc2ncnc(Nc3ccc(Oc4cccc(C(F)(F)F)c4)c(Cl)c3)c21
How it was run: as §1

[15] = compound: CC(C)C1=C2N=C(C=C(N2N=C1)NCC3=CC=CC=C3)NCCCCCCN
How it was run: as §1

[16] = compound: CC1=C(C(CC(=O)N1)C2=CC=C(C=C2)C(F)(F)F)C(=O)NC3=C(C=C4C(=C3)C=NN4)F
How it was run: as §1

[17] = compound: CC1=C(C2=C(C=C1)C(=O)C3=CC=CC=C3N2CCCN)C
How it was run: as §1

[18] = compound: CC1=C(C=C(C=C1)NC(=O)C2=CC(=CC=C2)C(C)(C)C#N)NC3=CC4=C(C=C3)N=CN(C4=O)C
How it was run: as §1

[19] = compound: CC1=C(C=C(C=C1)NC(=O)C2=CC(=CC=C2)N(C)C)NC(=O)C3=CC=C(C=C3)O
How it was run: as §1

[20] = compound: CC1=CC=C(C=C1)SC2=C3C=C(SC3=CN=C2)C(=O)N
How it was run: as §1

Measured: log2 fold change

DPF2 (UniProt Q92785)
inactive: [1] -0.036 | [2] -0.047 | [3] -0.01 | [4] 0.016 | [5] -0.018 | [6] 0.003 | [7] -0.004 | [8] 0.027 | [9] 0.021 | [10] 0.025 | [11] 0.005 | [12] -0.064 | [13] 0.002 | [14] -0.01 | [15] -0.02 | [16] -0.013 | [17] -0.042 | [18] 0.072 | [19] -0.011 | [20] -0.034

DYNLL1 (UniProt P63167)
inactive: [1] 0.021 | [2] 0.051 | [3] 0.046 | [4] 0 | [5] 0.017 | [6] -0.023 | [7] -0.031 | [8] 0.038 | [9] 0.076 | [10] 0.017 | [11] 0.001 | [12] -0.052 | [13] 0.032 | [14] -0.047 | [15] 0.004 | [16] -0.026 | [17] -0.01 | [18] 0.041 | [19] -0.035 | [20] 0.012

DVL2 (UniProt O14641)
inactive: [1] 0.012 | [2] -0.028 | [3] 0.011 | [4] -0.015 | [5] 0.03 | [6] -0.055 | [7] -0.029 | [8] 0.001 | [9] 0.067 | [10] -0.073 | [11] -0.032 | [12] 0.085 | [13] 0.022 | [14] 0.032 | [15] -0.019 | [16] 0.028 | [17] -0.056 | [18] -0.072 | [19] 0.045 | [20] 0.11

DPM1 (UniProt O60762)
inactive: [1] -0.009 | [2] -0.039 | [3] -0.036 | [4] 0.056 | [5] -0.015 | [6] -0.007 | [7] 0.041 | [8] -0.022 | [9] -0.014 | [10] -0.008 | [11] -0.016 | [12] -0.018 | [13] -0.025 | [14] -0.027 | [15] -0.009 | [16] 0.033 | [17] 0.015 | [18] 0.006 | [19] 0.014 | [20] 0.023

DUS1L (UniProt Q6P1R4)
inactive: [1] -0.013 | [2] -0.05 | [3] 0.047 | [4] 0.041 | [5] -0.029 | [6] -0.056 | [7] 0.049 | [8] -0.068 | [9] -0.01 | [10] 0.067 | [11] 0.03 | [12] 0.027 | [13] 0.001 | [14] 0.001 | [15] 0.101 | [16] 0.02 | [17] 0.028 | [18] -0.005 | [19] 0.081 | [20] -0.057

EI24 (UniProt O14681)
inactive: [1] -0.039 | [2] -0.113 | [3] -0.047 | [4] 0.022 | [5] 0.051 | [6] -0.074 | [7] -0.145 | [8] -0.008 | [9] 0.007 | [10] 0.067 | [11] -0.009 | [12] 0.04 | [13] -0.069 | [14] 0 | [15] 0.009 | [16] 0.046 | [17] 0.03 | [18] -0.007 | [19] 0.041 | [20] 0.006

EEF2K (UniProt O00418)
inactive: [1] 0.032 | [2] 0.024 | [3] -0.028 | [4] 0.041 | [5] 0.038 | [6] 0 | [7] -0.026 | [8] -0.029 | [9] -0.017 | [10] -0.023 | [11] -0.028 | [12] 0.039 | [13] -0.008 | [14] 0.023 | [15] 0.061 | [16] 0.026 | [17] -0.008 | [18] 0.009 | [19] 0.029 | [20] 0.043

Random excerpt: 2 records from the list, in no set order.
EEF2K (UniProt O00418)
inactive: [1] 0.032 | [2] 0.024 | [3] -0.028 | [4] 0.041 | [5] 0.038 | [6] 0 | [7] -0.026 | [8] -0.029 | [9] -0.017 | [10] -0.023 | [11] -0.028 | [12] 0.039 | [13] -0.008 | [14] 0.023 | [15] 0.061 | [16] 0.026 | [17] -0.008 | [18] 0.009 | [19] 0.029 | [20] 0.043

DUS1L (UniProt Q6P1R4)
inactive: [1] -0.013 | [2] -0.05 | [3] 0.047 | [4] 0.041 | [5] -0.029 | [6] -0.056 | [7] 0.049 | [8] -0.068 | [9] -0.01 | [10] 0.067 | [11] 0.03 | [12] 0.027 | [13] 0.001 | [14] 0.001 | [15] 0.101 | [16] 0.02 | [17] 0.028 | [18] -0.005 | [19] 0.081 | [20] -0.057

Additional results:

DTWD1 (UniProt Q8N5C7)
inactive: [1] 0.01 | [2] 0.082 | [3] -0.039 | [4] -0.004 | [5] -0.048 | [6] -0.025 | [7] 0.039 | [8] 0.01 | [9] 0.047 | [10] -0.01 | [11] 0.013 | [12] 0.032 | [13] 0.005 | [14] 0.005 | [15] 0.034 | [16] 0.058 | [17] -0.019 | [18] 0 | [19] -0.02 | [20] -0.027

EEF1G isoform 2 (UniProt P26641)
inactive: [1] 0.003 | [2] 0.043 | [3] -0.015 | [4] 0.002 | [5] 0.006 | [6] -0.001 | [7] 0.044 | [8] 0.022 | [9] -0.006 | [10] 0.003 | [11] 0.038 | [12] 0.009 | [13] -0.014 | [14] 0.012 | [15] 0.002 | [16] 0.001 | [17] 0.02 | [18] -0.015 | [19] -0.004 | [20] 0.046

EIF1 (UniProt P41567)
inactive: [1] -0.006 | [2] -0.022 | [3] 0.063 | [4] -0.031 | [5] -0.004 | [6] 0.044 | [7] 0.011 | [8] -0.027 | [9] -0.023 | [10] 0.02 | [11] 0.026 | [12] 0.015 | [13] -0.016 | [14] 0.011 | [15] 0 | [16] -0.114 | [17] 0.059 | [18] 0.045 | [19] -0.043 | [20] -0.037

DYNC1LI2 (UniProt O43237)
inactive: [1] 0.001 | [2] 0.011 | [3] -0.001 | [4] -0.011 | [5] 0.009 | [6] -0.018 | [7] -0.03 | [8] -0.027 | [9] 0.002 | [10] 0.037 | [11] -0.014 | [12] 0.02 | [13] 0 | [14] -0.08 | [15] 0.014 | [16] 0.212 | [17] -0.082 | [18] 0.112 | [19] 0.002 | [20] 0.006

EGLN1 (UniProt Q9GZT9)
inactive: [1] 0.006 | [2] 0.016 | [3] 0.034 | [4] 0.028 | [5] -0.027 | [6] 0.006 | [7] -0.005 | [8] 0.015 | [9] -0.019 | [10] -0.021 | [11] -0.041 | [12] 0.007 | [13] 0.01 | [14] 0.072 | [15] 0.029 | [16] 0.013 | [17] -0.029 | [18] 0.013 | [19] 0.029 | [20] 0.038

DUS2 (UniProt Q9NX74)
inactive: [1] 0.006 | [2] 0.007 | [3] 0.017 | [4] 0.057 | [5] 0.027 | [6] 0.021 | [7] 0.033 | [8] -0.016 | [9] 0.05 | [10] -0.004 | [11] 0.071 | [12] -0.036 | [13] 0.026 | [14] 0.097 | [15] -0.003 | [16] -0.056 | [17] -0.029 | [18] -0.004 | [19] 0.091 | [20] 0.01

EAF1 (UniProt Q96JC9)
inactive: [1] -0.056 | [2] -0.041 | [3] 0.093 | [4] 0.011 | [5] 0.016 | [6] 0.035 | [7] 0.003 | [8] 0.004 | [9] 0.027 | [10] 0.017 | [11] -0.004 | [12] -0.037 | [13] 0.037 | [14] -0.067 | [15] 0.028 | [16] 0.041 | [17] 0.003 | [18] 0.061 | [19] -0.015 | [20] -0.021

DSG2 (UniProt Q14126)
inactive: [1] -0.018 | [2] 0.016 | [3] -0.023 | [4] -0.02 | [5] -0.004 | [6] -0.021 | [7] -0.019 | [8] -0.017 | [9] 0.009 | [10] -0.037 | [11] 0.024 | [12] 0 | [13] 0.09 | [14] 0.063 | [15] -0.019 | [16] 0.032 | [17] -0.004 | [18] 0.037 | [19] -0.02 | [20] -0.044

EEF2 (UniProt P13639)
inactive: [1] -0.009 | [2] -0.052 | [3] 0.005 | [4] -0.001 | [5] -0.011 | [6] 0 | [7] 0.007 | [8] 0.013 | [9] 0.001 | [10] 0.001 | [11] 0.013 | [12] -0.005 | [13] -0.008 | [14] 0.003 | [15] -0.017 | [16] -0.015 | [17] -0.003 | [18] -0.006 | [19] -0.007 | [20] -0.006
